Measurements: patent publication US7781411B2, “Derivatives of avermectin, avermectin monosaccharide and avermectin aglycone” (Syngenta Crop Protection, Inc., priority 2004, dated 2010)
Some of these results come from one statement about several compounds together.

Columns and labels:
Format in all cases: in vivo
[1] = system: Tetranychus urticae; experiment: Activity against Tetranychus urticae (sprayed bean plants); settings: 12.5 ppm spray on bean plants, mixed population, 25° C., 6 days
[2] = system: Heliothis virescens; experiment: Activity against Heliothis virescens (eggs on filter paper); settings: 12.5 ppm test solution, 0.8 ml on eggs on filter paper, 6 days
[3] = system: Frankliniella occidentalis; experiment: Activity against Frankliniella occidentalis (bean leaf discs); settings: 12.5 ppm spray on bean leaf discs, mixed population, 10 days
[4] = system: Spodoptera littoralis; experiment: Activity against Spodoptera littoralis, systemic (maize seedlings in test solution); settings: maize seedlings in 12.5 ppm test solution 6 days, larvae on cut leaves, 4 days later
[5] = system: Plutella xylostella; experiment: Activity against Plutella xylostella caterpillars (sprayed cabbage plants); settings: 12.5 ppm spray on cabbage plants, third stage caterpillars, 3 days
[6] = system: Diabrotica balteata; experiment: Activity against Diabrotica balteata (sprayed maize seedlings); settings: 12.5 ppm spray on maize seedlings, second stage larvae, 6 days
[7] = system: Spodoptera littoralis; experiment: Activity against Spodoptera littoralis (sprayed soya bean plants); settings: 12.5 ppm spray on soya bean plants, first stage caterpillars, 3 days

Measured: reduction in the pest population

CCC(C)C1OC2(C=CC1C)CC1CC(CC=C(C)C(OC3OC(C)C(OCOC)C(OC)C3OC)C(C)C=CC=C3COC4C(O)C(C)=CC(C(=O)O1)C34O)O2 (stereo not shown) [Compound P1.4]
more than 80%: [1]

CCC(C)C1OC2(C=CC1C)CC1CC(CC=C(C)C(OC3OC(C)C(O)C(OC)C3OC)C(C)C=CC=C3COC4C(O)C(C)=CC(C(=O)O1)C34O)O2 (stereo not shown) [Compound P2.2]
more than 80%: [1] | [2] | [3]

CCC(C)C1OC2(C=CC1C)CC1CC(CC=C(C)C(OC3OC(C)C(OCOC)C(OC)C3OC)C(C)C=CC=C3COC4C(O)C(C)=CC(C(=O)O1)C34O)O2 (stereo not shown) [Compound P2.3]
more than 80%: [4]

CCC(C)C1OC2(C=CC1C)CC1CC(CC=C(C)C(OC3CC(OC)C(OC4OC(C)C(OC)C(OC)C4OC)C(C)O3)C(C)C=CC=C3COC4C(O)C(C)=CC(C(=O)O1)C34O)O2 (stereo not shown) [Compound P3.3]
more than 80%: [5] | [2] | [6] | [7] | [3]

CCC(C)C1OC2(C=CC1C)CC1CC(CC=C(C)C(OC3CC(OC)C(OC4OC(C)C(OC(C)=O)C(OC)C4OC)C(C)O3)C(C)C=CC=C3COC4C(O)C(C)=CC(C(=O)O1)C34O)O2 (stereo not shown) [Compound P3.5]
more than 80%: [5] | [1] | [2] | [3]

CCC(C)C1OC2(C=CC1C)CC1CC(CC=C(C)C(OC3CC(OC)C(OC4OC(C)C(OC)C(OC)C4OC)C(C)O3)C(C)C=CC=C3COC4C(O)C(C)=CC(C(=O)O1)C34O)O2 (stereo not shown) [Compound P7.1]
more than 80%: [1]

CCC(C)C1OC2(C=CC1C)CC1CC(CC=C(C)C(OC3CC(OC)C(OC4OC(C)C(OC)C(OC)C4OC)C(C)O3)C(C)C=CC=C3COC4C(O)C(C)=CC(C(=O)O1)C34O)O2 (stereo not shown) [Compound P8.1]
more than 80%: [4]

CCC(C)C1OC2(C=CC1C)CC1CC(CC=C(C)C(OC3CC(OC)C(OC4OC(C)C(O)C(OC)C4CC)C(C)O3)C(C)C=CC=C3COC4C(O)C(C)=CC(C(=O)O1)C34O)O2 (stereo not shown) [Compound P10.9]
more than 80%: [1] | [4]

CCC(C)C1OC2(C=CC1C)CC1CC(CC=C(C)C(OC3CC(OC)C(OC4OC(C)C(C)(O)C(OC)C4C)C(C)O3)C(C)C=CC=C3COC4C(O)C(C)=CC(C(=O)O1)C34O)O2 (stereo not shown) [Compound P10.10]
more than 80%: [1]

CCC(C)C1OC2(C=CC1C)CC1CC(CC=C(C)C(OC3CC(OC)C(OC4CC(OC)C(OC5OC(C)C(OC(C)=O)C(OC)C5OC)C(C)O4)C(C)O3)C(C)C=CC=C3COC4C(O)C(C)=CC(C(=O)O1)C34O)O2 (stereo not shown) [Compound P11.2]
more than 80%: [5] | [1] | [2] | [3]

CCC(C)C1OC2(C=CC1C)CC1CC(CC=C(C)C(OC3CC(OC)C(OC4CC(OC)C(OC5OC(C)C(OC)C(OC)C5OC)C(C)O4)C(C)O3)C(C)C=CC=C3COC4C(O)C(C)=CC(C(=O)O1)C34O)O2 (stereo not shown) [Compound P12.1]
more than 80%: [5] | [1] | [2] | [7] | [3]

CCC(C)C1OC2(C=CC1C)CC1CC(CC=C(C)C(OC3CC(OC)C(OC4OC(C)C(C)(O)C(OC)C4C)C(C)O3)C(C)C=CC=C3COC4C(O)C(C)=CC(C(=O)O1)C34O)O2 (stereo not shown) [Compound P13.2]
more than 80%: [5] | [2] | [3]

CCC(C)C1OC2(C=CC1C)CC1CC(CC=C(C)C(OC3CC(OC)C(OC4OC(C)C(N(C)C)C(OC)C4C)C(C)O3)C(C)C=CC=C3COC4C(O)C(C)=CC(C(=O)O1)C34O)O2 (stereo not shown) [Compound P13.6]
more than 80%: [5] | [1] | [2] | [4] | [6] | [7] | [3]

CCC(C)C1OC2(C=CC1C)CC1CC(CC=C(C)C(OC3CC(OC)C(OC4OC(C)C(NC=O)C(OC)C4C)C(C)O3)C(C)C=CC=C3COC4C(O)C(C)=CC(C(=O)O1)C34O)O2 (stereo not shown) [Compound P13.7]
more than 80%: [5] | [1] | [2] | [4] | [7] | [3]

CCC(C)C1OC2(C=CC1C)CC1CC(CC=C(C)C(OC3CC(OC)C(OC4OC(C)C(NC(=O)COC)C(OC)C4C)C(C)O3)C(C)C=CC=C3COC4C(O)C(C)=CC(C(=O)O1)C34O)O2 (stereo not shown) [Compound P13.9]
more than 80%: [5] | [1] | [2] | [4] | [6] | [7] | [3]

CCC(C)C1OC2(C=CC1C)CC1CC(CC=C(C)C(OC3CC(OC)C(OC4OC(C)C(N(C)C=O)C(OC)C4C)C(C)O3)C(C)C=CC=C3COC4C(O)C(C)=CC(C(=O)O1)C34O)O2 (stereo not shown) [Compound P13.11]
more than 80%: [5] | [1] | [2] | [6] | [7] | [3]

CCC(C)C1OC2(C=CC1C)CC1CC(CC=C(C)C(OC3CC(OC)C(OC4OC(C)C(N(C)C(=O)COC)C(OC)C4C)C(C)O3)C(C)C=CC=C3COC4C(O)C(C)=CC(C(=O)O1)C34O)O2 (stereo not shown) [Compound P13.13]
more than 80%: [5] | [1] | [2] | [7] | [3]

CCC(C)C1OC2(C=CC1C)CC1CC(CC=C(C)C(OC3CC(OC)C(OC4OC(C)C(N(C)C(=O)OC)C(OC)C4C)C(C)O3)C(C)C=CC=C3COC4C(O)C(C)=CC(C(=O)O1)C34O)O2 (stereo not shown) [Compound P13.14]
more than 80%: [5] | [1] | [2] | [7] | [3]

CCC(C)C1OC2(C=CC1C)CC1CC(CC=C(C)C(OC3CC(OC)C(OC4OC(C)C(N(C)CC#N)C(OC)C4C)C(C)O3)C(C)C=CC=C3COC4C(O)C(C)=CC(C(=O)O1)C34O)O2 (stereo not shown) [Compound P13.15]
more than 80%: [5] | [1] | [2] | [7] | [3]

CCC(C)C1OC2(C=CC1C)CC1CC(CC=C(C)C(OC3CC(OC)C(OC4OC(C)C(O)C(OC)C4CC)C(C)O3)C(C)C=CC=C3COC4C(O)C(C)=CC(C(=O)O1)C34O)O2 (stereo not shown) [Compound P13.16]
more than 80%: [5] | [2] | [6] | [7] | [3]

CCC(C)C1OC2(C=CC1C)CC1CC(CC=C(C)C(OC3CC(OC)C(OC4OC(C)C(C)(O)C(OC)C4C)C(C)O3)C(C)C=CC=C3COC4C(O)C(C)=CC(C(=O)O1)C34O)O2 (stereo not shown) [Compound P15.3]
more than 80%: [6] | [7]
